# Percent effect of library compounds

Chains of the proteins cited; added tags and fusions are not shown.
UniProt P9WFT3, whole entry: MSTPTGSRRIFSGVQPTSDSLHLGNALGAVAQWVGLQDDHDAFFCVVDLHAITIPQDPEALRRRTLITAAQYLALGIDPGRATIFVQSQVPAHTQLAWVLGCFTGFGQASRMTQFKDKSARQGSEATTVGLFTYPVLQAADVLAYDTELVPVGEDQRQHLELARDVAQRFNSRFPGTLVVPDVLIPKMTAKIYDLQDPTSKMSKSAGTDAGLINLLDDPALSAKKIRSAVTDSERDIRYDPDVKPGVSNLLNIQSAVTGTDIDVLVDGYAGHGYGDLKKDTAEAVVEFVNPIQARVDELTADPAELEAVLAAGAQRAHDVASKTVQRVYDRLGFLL
UniProt P9WPC5, whole entry: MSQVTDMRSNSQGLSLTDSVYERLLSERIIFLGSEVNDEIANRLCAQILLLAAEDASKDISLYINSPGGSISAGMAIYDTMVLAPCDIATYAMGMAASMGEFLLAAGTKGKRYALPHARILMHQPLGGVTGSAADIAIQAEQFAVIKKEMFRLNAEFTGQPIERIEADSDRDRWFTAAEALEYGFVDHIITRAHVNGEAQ
UniProt P9WPC3, whole entry partner: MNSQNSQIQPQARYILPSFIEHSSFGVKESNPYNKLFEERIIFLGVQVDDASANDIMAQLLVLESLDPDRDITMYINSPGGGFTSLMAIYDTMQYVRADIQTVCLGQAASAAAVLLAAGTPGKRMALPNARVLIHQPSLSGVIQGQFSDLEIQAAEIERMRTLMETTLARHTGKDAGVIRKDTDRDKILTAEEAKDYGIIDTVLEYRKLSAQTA
UniProt P9WNZ1, whole entry: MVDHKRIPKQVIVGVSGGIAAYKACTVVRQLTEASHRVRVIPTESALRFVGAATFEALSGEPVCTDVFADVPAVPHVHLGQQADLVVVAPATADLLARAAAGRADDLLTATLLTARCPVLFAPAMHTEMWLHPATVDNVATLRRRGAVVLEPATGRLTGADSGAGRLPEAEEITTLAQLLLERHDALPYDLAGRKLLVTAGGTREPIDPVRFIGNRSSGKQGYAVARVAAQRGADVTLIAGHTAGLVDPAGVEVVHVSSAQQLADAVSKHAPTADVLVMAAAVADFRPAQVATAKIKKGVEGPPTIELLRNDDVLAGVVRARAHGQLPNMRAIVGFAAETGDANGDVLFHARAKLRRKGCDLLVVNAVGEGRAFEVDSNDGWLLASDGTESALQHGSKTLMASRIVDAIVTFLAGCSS
UniProt I6X8D2, whole entry: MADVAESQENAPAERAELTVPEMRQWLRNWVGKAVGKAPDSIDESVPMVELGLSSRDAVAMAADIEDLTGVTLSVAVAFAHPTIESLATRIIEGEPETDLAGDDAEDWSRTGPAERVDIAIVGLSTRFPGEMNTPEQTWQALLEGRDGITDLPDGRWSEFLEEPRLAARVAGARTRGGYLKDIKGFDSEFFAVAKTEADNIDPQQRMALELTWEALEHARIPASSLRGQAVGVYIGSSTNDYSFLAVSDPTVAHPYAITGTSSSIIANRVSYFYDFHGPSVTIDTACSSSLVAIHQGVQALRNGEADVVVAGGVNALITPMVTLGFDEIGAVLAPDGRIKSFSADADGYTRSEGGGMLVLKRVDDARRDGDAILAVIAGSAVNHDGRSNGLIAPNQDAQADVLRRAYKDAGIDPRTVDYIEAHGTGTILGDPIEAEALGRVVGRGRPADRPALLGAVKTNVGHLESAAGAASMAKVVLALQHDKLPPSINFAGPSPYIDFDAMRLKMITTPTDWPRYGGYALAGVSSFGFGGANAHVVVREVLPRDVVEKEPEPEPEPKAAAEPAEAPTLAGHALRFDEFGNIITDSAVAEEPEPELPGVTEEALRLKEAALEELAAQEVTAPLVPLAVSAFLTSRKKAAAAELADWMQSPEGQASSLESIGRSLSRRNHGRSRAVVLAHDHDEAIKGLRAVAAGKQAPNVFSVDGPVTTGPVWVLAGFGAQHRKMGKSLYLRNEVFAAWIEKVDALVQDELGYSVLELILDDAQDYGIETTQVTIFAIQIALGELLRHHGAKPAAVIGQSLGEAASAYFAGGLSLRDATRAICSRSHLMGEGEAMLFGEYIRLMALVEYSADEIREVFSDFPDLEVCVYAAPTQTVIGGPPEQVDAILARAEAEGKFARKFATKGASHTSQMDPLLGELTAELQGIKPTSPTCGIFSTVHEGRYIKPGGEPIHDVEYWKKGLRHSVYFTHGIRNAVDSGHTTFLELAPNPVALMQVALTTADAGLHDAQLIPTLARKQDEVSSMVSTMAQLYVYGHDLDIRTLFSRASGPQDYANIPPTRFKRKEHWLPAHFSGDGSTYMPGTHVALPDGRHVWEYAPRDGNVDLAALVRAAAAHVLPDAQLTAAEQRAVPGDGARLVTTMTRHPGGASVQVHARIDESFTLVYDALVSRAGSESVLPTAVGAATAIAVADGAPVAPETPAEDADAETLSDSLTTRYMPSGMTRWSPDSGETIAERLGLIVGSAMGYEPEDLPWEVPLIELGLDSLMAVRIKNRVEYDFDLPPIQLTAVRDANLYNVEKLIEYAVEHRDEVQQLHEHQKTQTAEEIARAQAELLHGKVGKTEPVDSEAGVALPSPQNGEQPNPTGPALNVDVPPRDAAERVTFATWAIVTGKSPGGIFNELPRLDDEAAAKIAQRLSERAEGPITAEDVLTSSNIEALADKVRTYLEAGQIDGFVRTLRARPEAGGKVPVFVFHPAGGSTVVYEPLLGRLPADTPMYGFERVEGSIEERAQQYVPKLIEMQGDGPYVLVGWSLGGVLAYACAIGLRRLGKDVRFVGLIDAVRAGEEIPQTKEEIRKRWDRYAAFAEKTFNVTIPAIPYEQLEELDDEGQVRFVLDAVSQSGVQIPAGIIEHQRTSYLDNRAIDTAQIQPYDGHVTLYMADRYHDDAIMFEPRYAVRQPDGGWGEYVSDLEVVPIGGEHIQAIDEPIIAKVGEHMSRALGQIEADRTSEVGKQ

Source: ChEMBL document CHEMBL3988442, “University of Dundee, Small-Polar-MMV Screening Library” (2021).

MtTrpRS: 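Tryptophan-tRNA ligase, Mycobacterium tuberculosis (UniProt P9WFT3). Enzyme assay of tryptophanyl-tRNA synthetase; the read-out is not stated. Compounds at 10 µM. Direction is not recorded; retested compounds ran higher, which suggests that high means inhibition. Size under these conditions: about 65,000 compounds, about 64 of them at 50% or above in at least one test.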
Toxoplasma: 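Assay of Toxoplasma gondii numbers, read through their beta-galactosidase reporter with a colour substrate. Compounds at 10 µM. The record gives no direction; the compounds picked for IC50 retests had high values, so higher reads as fewer parasites. About 67,000 compounds were tested under these conditions; 0.38% (about 260) showed 50% or more at least once.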
ClpP1P2: 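ClpP1P2, Mycobacterium tuberculosis (UniProt P9WPC5 and UniProt P9WPC3). Protease assay of ClpP1P2, read by the AMC dye that it sets free. Compounds at 50 µM. Direction is inferred from only a few compounds that gave an IC50; most scored high, so higher reads as stronger inhibition. Most other retested compounds had strongly negative values. Of about 69,000 compounds tested this way, about 10 (0.015%) reached 50% or more in at least one test.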
CoaBC: 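Coenzyme A biosynthesis protein CoaBC, Mycobacterium tuberculosis (UniProt P9WNZ1). Enzyme assay of CoaBC with a phosphate dye (Biomol Green) read at 650 nm. Compounds at 30 µM. Higher reads as stronger inhibition, judged from the few compounds that gave an IC50. Most strong results did not repeat in a second test. About 67,000 compounds were tested under these conditions; 0.06% (about 40) showed 50% or more at least once.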
Pks13 thioesterase: 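Polyketide synthase Pks13, Mycobacterium tuberculosis (UniProt I6X8D2). Enzyme assay of the thioesterase domain of polyketide synthase 13; the read-out is not stated. Tested at 30 µM. Higher reads as stronger inhibition (inferred from which compounds were picked for retests). Of about 67,000 compounds tested this way, about 300 (0.46%) reached 50% or more in at least one test.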

Values are the deposited “Percent Effect”, in %. The record does not define 0% and 100%; most values in the screen are far below 50% and negative numbers occur (in some assays of this library far below -100). This is an unselected part of the compounds tested. A dash means the value is not listed here; it may have been measured.

structure,MtTrpRS,Toxoplasma,ClpP1P2,CoaBC,Pks13 thioesterase
CC(C)N1CCO[C@H]2CN(C(=O)c3ccncc3F)C[C@H]21,1.647%,-,-3.886%,-,-26.98%
[H][C@@]12CC[C@H](Oc3ccc(Cl)cc3)[C@]1([H])CN(C(=O)Cn1ccnc1)C2,-,8.794%,-,-,-
[H][C@@]12CCCO[C@]1([H])[C@H](NC(=O)C1CC1)CN2Cc1ccsc1,-,4.06%,-,-,-
CN1CC(NC(=O)Nc2cnn(-c3ccccc3Cl)c2)CCC1=O (stereo unspecified),1.508%,-21.19%,-16.61%,2.428%,-20.9%
COCc1nn(CC2CC2)c2c1CN(Cc1cccs1)CC2,-3.476%,-,-21.73%,3.562%,-26.08%
CC(C)OCc1nn(C)c2c1CN(Cc1cccs1)CC2,-,-,-12.21%,-0.495%,0.352%
CC(=O)N1CCC(Cc2cnc(C(=O)N3CCCC3)cn2)C1 (stereo unspecified),-,-0.03571%,2.265%,7.063%,-15.2%
O=C(O)C(F)(F)F.O=C(O)C(F)(F)F.c1cncc(COCc2nnc3n2CCN(Cc2ccco2)C3)c1,-,-5.803%,-,-,-
Cn1cc(CN2CCCC3(CCN(C(=O)c4ccoc4)C3)C2)cn1 (stereo unspecified),-2.222%,12.77%,7.576%,2.284%,-19.63%
CCCc1nc(C)c(C(=O)NCC2CCN(C3CC3)C2)s1 (stereo unspecified),4.909%,-6.198%,18.6%,-1.691%,-19.67%
COCc1cc(CNC(=O)c2cc(NC(C)=O)ccc2Cl)n[nH]1,-2.596%,11.8%,-4.029%,1.277%,-16.56%
c1ccc2c(c1)COC1(CCCC1)N2,-0.06325%,15.27%,-11.05%,-0.7264%,-2.958%
CCN1C[C@@H]2[C@@H](OC)CCN(S(=O)(=O)c3ccccc3F)[C@@H]2C1,3.7%,-,3.581%,-2.332%,-25.44%
Cc1c(C(=O)NC2CCCC2)nnn1-c1ccccc1,-1.563%,18.69%,-5.624%,0.8589%,-3.83%
COc1ccc(F)c(CN2CC(=O)N(c3ccccc3C)CC2C)c1 (stereo unspecified),-4.549%,-0.6698%,-16.32%,7.282%,-24.48%
CC(NCc1ccccn1)c1cc2c(cc1Br)OCCO2 (stereo unspecified),0.5455%,8.522%,3.95%,3.14%,-15.28%
c1cnc(NCc2noc3c2CN(C2CCOC2)CC3)nc1 (stereo unspecified),3.133%,1.507%,-11.89%,6.688%,-24.49%
NC(=O)NC(=O)CCN1CCCN(c2nccs2)CC1,1.436%,7.913%,8.228%,-1.434%,-8.021%
Cc1[nH]c(-c2ccccc2)nc1C(=O)N1CCC(O)(CO)CC1,1.469%,-3.715%,-8.768%,2.056%,-8.888%
CN1CCC2(CCN(CC3CCOCC3)CC2)C1=O,-3.171%,-,6.761%,6.977%,-44.5%
COc1ncnc(N)c1CNCCc1ccccc1,-2.12%,7.725%,2.263%,2.265%,-9.553%
c1cnnc(N2CCCC(NCc3nc(-c4ccco4)no3)C2)c1 (stereo unspecified),90.78%,11.5%,13.72%,0.7895%,-34.88%
CN1CCOC(CNCc2coc(-c3ccc(Cl)cc3)n2)C1 (stereo unspecified),-0.8892%,-48%,2.891%,0.2193%,-18.76%
CC(=O)N1CCCN(C(C(=O)O)c2ccc(C)cc2C)CC1 (stereo unspecified),2.21%,1.915%,-3.83%,4.436%,-41.57%
NC(=O)CS(=O)(=O)Cc1ccc(F)cc1,1.11%,0.4315%,15.55%,-,-27.31%
CN1C(=O)CC(c2ccccc2)C12CCN(CCO)CC2.O=C(O)C(F)(F)F (stereo unspecified),-,7.877%,-,-,-
COc1ccc(CN2C[C@H]3CN(Cc4ccncc4)C(=O)[C@H]3C2)cc1,7.518%,-,-6.382%,6.87%,-24.85%
CN1CCC(NC(=O)NCCNc2ccccn2)CC1,-4.568%,-1.4%,9.588%,14.84%,-11.6%
Cc1c(F)cccc1CN1CCn2nc(CNC(=O)N(C)C)cc2C1,4.094%,6.801%,-15.56%,7.895%,-8.917%
Cc1cc(Cl)ccc1C(=O)N1C[C@H](C2CC2)[C@@H](N)C1,-2.252%,4.232%,-11.44%,0.122%,-3.216%
CC(=O)N1Cc2ccccc2CC1C(=O)Nc1cc(C)ccn1 (stereo unspecified),-15.28%,1.514%,-3.034%,6.585%,-15.19%
O=C(c1ccc(F)cc1)N1CCOC(c2nc(-c3ncccn3)no2)C1 (stereo unspecified),-,12.31%,-1.767%,3.874%,39.54%
CCC[C@@H]1CN(Cc2c[nH]nc2-c2ccc(F)cc2)C[C@H]1NS(C)(=O)=O,1.22%,15.27%,2.091%,-1.794%,-8.023%
CN1CC2(CCCN(c3cc(N4CCCCC4)ncn3)C2)OC1=O (stereo unspecified),8.676%,-2.892%,-3.288%,6.8%,8.52%
O=C1[C@H]2CN(Cc3ccccc3)C[C@H]2CN1c1cncnc1,12.77%,-,5.971%,1.142%,-35.63%
O=C(N[C@@H]1CCCNC1)C1(Oc2ccc(Cl)cc2)CCNCC1,-0.3276%,21.5%,11.7%,-54.46%,2.251%
Cc1cc(C2CCCN(CCCS(C)(=O)=O)C2)n[nH]1 (stereo unspecified),0.4788%,-6.738%,-1.951%,15.13%,-8.423%
O=C(Nc1nncs1)N(Cc1cccc(O)c1)C1CC1,1.754%,12.47%,-8.037%,-,-52.34%
CSC(C)(C)CNC(=O)NC1CCN(CC=C(C)C)CC1,-1.81%,9.651%,18.47%,-4.545%,-11.95%
Cn1cc(CN2CCC(F)(F)C3(CCN(c4ccccn4)C3)C2)cn1.O=C(O)C(F)(F)F.O=C(O)C(F)(F)F (stereo unspecified),-,11.52%,-,-,-
Cc1nc(O)cc(C2CCN(C(=O)C(C)Cn3nc(C)nc3C)CC2)n1 (stereo unspecified),2.835%,16.76%,-7.174%,0.7673%,-11.45%
Cc1ccccc1CN(CCN(C)C)Cc1ccc(C(=O)O)cc1,-0.9662%,-8.015%,-11.04%,-1.948%,-5.674%
NC(=O)c1cc(C2CCCN(CCOc3cccc(F)c3)C2)n[nH]1 (stereo unspecified),16.98%,-18.78%,-13.86%,3.947%,-29.31%
COc1ccccc1CCN(C)C(=O)NC(C)c1nncn1C (stereo unspecified),-2.956%,-6.793%,-2.563%,2.738%,-0.4106%
CC(=O)N1CCN(Cc2ccc(C(F)(F)F)cc2F)CC(O)C1 (stereo unspecified),-2.894%,-11.72%,-20.24%,-2.609%,-2.067%
Oc1cc(C2CCCCN2Cc2ccsc2)nc(-c2ccncc2)n1 (stereo unspecified),-2.605%,-17.89%,-10.14%,-2.822%,12.45%
[H][C@@]12CC(=O)N(CC)[C@@]1([H])CCN2S(=O)(=O)c1cccc(C)c1,-,-15.84%,-,-,-
COc1ccc2c(C(=O)N(C)C)cc(-c3cnc(N)nc3)nc2c1,1.372%,-13.38%,-22.29%,-3.782%,75.31%
Fc1cccnc1OC[C@@]12CCO[C@@H]1CCN(CC1CCOCC1)C2,0.1676%,-,6.954%,-12.78%,-16.52%
OC(COCc1cccs1)CN1CCc2c(ncn2C2CC2)C1 (stereo unspecified),2.443%,-10.17%,-14.68%,3.133%,-13.74%
O=C(O)C(F)(F)F.O=C(c1ccccc1)N1CCC2(CCCN2c2ncccn2)CC1,-,-20.27%,-,-,-
COc1ccnc(N2CCN(CC(O)CN3CCOCC3)CC2)n1 (stereo unspecified),-4.655%,2.854%,-7.461%,1.695%,-9.234%
O=C(Cc1ccccn1)N1CCCC(c2nccn2CC2CCC2)C1 (stereo unspecified),-1.224%,0.7061%,12.3%,6.203%,-6.204%
CCOCCN1Cc2cnn(C)c2C(COCC)C1 (stereo unspecified),3.045%,-,12.39%,2.792%,-32.09%
Cc1cnn(CC2CCCCN2C(=O)c2ccccc2-n2cccn2)c1 (stereo unspecified),3.266%,-37.58%,6.662%,8.571%,-2.752%
O=C(c1cc[nH]n1)N(Cc1cccc(O)c1)CC1CC1,-2.564%,5.758%,-12.14%,2.457%,-1.056%
O=C(Cc1ccco1)N1C[C@H]2CCC[C@@]2(COc2cccnc2)C1,-6.623%,-,8.088%,3.448%,-4.832%
COc1cc(C)c(CNC(C)c2nc(C)cs2)cc1OC (stereo unspecified),1.568%,21.58%,-3.29%,-2.703%,-
CC/N=c1\c(NC(=O)C(C)(C)C)c(O)oc2ccccc12,2.724%,7.596%,6.32%,3.33%,-16.99%
Cn1ccnc1SCCNC1CCN(c2nc3ccccc3s2)CC1,-0.8942%,8.471%,-5.583%,-16.87%,-29.09%
CCC(C)c1csc(NC(=O)Cc2csc(-c3nnc[nH]3)n2)n1 (stereo unspecified),0.6536%,-17.87%,-6.079%,13.38%,-7.199%